According to the supplement of paper PMC6078165:
The reference is the same well before dosing, and untreated signal decays as well.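 Labels refer to human fibroblasts, largely primary: uterine (C12385, HUF), lung (H6013), bone (Hs27A), adrenal (HADF), skin (WS1), plus mammary HMF and breast cancer-associated Hs343T. Cancer lines are basal-like or mesenchymal-like triple-negative breast cancer. The paper counts as hits responses shifting over 3x the replicate standard deviation. The tissue of the other fibroblasts is not given here.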

Test system: MDAMB468
Assay: relative JC-1 red fluorescence (viability) vs pre-drug, coculture with fibroblast (fraction); higher = more viable cancer cells
Protocol: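 JC-1 labelled TNBC cells cocultured 1:1 (1,500 cells each) with CellTrace Violet stained primary or stromal fibroblasts in 384-well plates in FluoroBrite medium, treated with one of 42 anticancer drugs at 0.1, 1, 10 or 100 uM. JC-1 red fluorescence (mitochondrial integrity in cancer cells only) was read by plate reader every 8 h for 72 h. Values are normalised to each well's pre-drug value. The stock of one drug was tenfold lower, so its dose labels may be too high.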

CC(C)C[C@H](NC(=O)[C@H](Cc1ccccc1)NC(=O)c1cnccn1)B(O)O [Bortezomib]
relative JC-1 red fluorescence
Details | 8 h | 16 h | 24 h | 32 h | 40 h | 48 h | 56 h | 64 h | 72 h
0.1 µM, coculture fibroblast: C12385 | 0.873 | 0.837 | 0.834 | 0.806 | 0.789 | 0.845 | 0.843 | 0.877 | 0.905
0.1 µM, coculture fibroblast: H6013 | 0.858 | 0.875 | 0.845 | 0.826 | 0.879 | 0.923 | 0.8466 | 0.881 | 0.878
0.1 µM, coculture fibroblast: H6019 | 0.82 | 0.77 | 0.808 | 0.835 | 0.865 | 0.89 | 0.871 | 0.852 | 0.848
0.1 µM, coculture fibroblast: H6076 | 0.8997 | 0.896 | 0.81 | 0.819 | 0.768 | 0.784 | 0.776 | 0.78 | 0.837
0.1 µM, coculture fibroblast: H6231 | 0.81 | 0.867 | 0.771 | 0.804 | 0.731 | 0.737 | 0.724 | 0.714 | 0.757
0.1 µM, coculture fibroblast: HADF | 0.859 | 0.849 | 0.812 | 0.789 | 0.8106 | 0.8288 | 0.8017 | 0.82 | 0.748
0.1 µM, coculture fibroblast: HCFa | 0.834 | 0.772 | 0.6948 | 0.658 | 0.67 | 0.6952 | 0.674 | 0.661 | 0.602
0.1 µM, coculture fibroblast: HCPF | 0.8342 | 0.89915 | 0.783 | 0.774 | 0.691 | 0.666 | 0.632 | 0.63 | 0.66
0.1 µM, coculture fibroblast: HHSteC | 0.8766 | 0.831 | 0.779 | 0.732 | 0.743 | 0.77 | 0.718 | 0.702 | 0.644
0.1 µM, coculture fibroblast: HMF | 0.82 | 0.897 | 0.7617 | 0.749 | 0.669 | 0.6667 | 0.656 | 0.66 | 0.696
0.1 µM, coculture fibroblast: HPFa | 0.867 | 0.839 | 0.818 | 0.766 | 0.803 | 0.832 | 0.792 | 0.796 | 0.726
0.1 µM, coculture fibroblast: HUF | 0.893 | 0.784 | 0.735 | 0.693 | 0.666 | 0.701 | 0.688 | 0.705 | 0.707
0.1 µM, coculture fibroblast: Hs5 | 0.9506 | 0.94 | 0.819 | 0.8 | 0.726 | 0.704 | 0.697 | 0.678 | 0.724
0.1 µM, coculture fibroblast: Hs27A | 0.832 | 0.888 | 0.852 | 0.866 | 0.859 | 0.878 | 0.852 | 0.856 | 0.774
0.1 µM, coculture fibroblast: Hs343T | 0.836 | 0.886 | 0.744 | 0.749 | 0.686 | 0.671 | 0.66 | 0.679 | 0.707
0.1 µM, coculture fibroblast: WS1 | 0.861 | 0.78 | 0.746 | 0.712 | 0.698 | 0.734 | 0.746 | 0.77 | 0.804
1 µM, coculture fibroblast: C12385 | 0.8469 | 0.754 | 0.544 | 0.444 | 0.388 | 0.39 | 0.36 | 0.354 | 0.357
1 µM, coculture fibroblast: H6013 | 0.827 | 0.735 | 0.674 | 0.652 | 0.658 | 0.662 | 0.644 | 0.644 | 0.574
1 µM, coculture fibroblast: H6019 | 0.779 | 0.568 | 0.537 | 0.511 | 0.494 | 0.504 | 0.486 | 0.486 | 0.484
1 µM, coculture fibroblast: H6076 | 0.886 | 0.861 | 0.744 | 0.738 | 0.667 | 0.685 | 0.663 | 0.657 | 0.75
1 µM, coculture fibroblast: H6231 | 0.8016 | 0.8996 | 0.718 | 0.635 | 0.541 | 0.521 | 0.472 | 0.448 | 0.457
1 µM, coculture fibroblast: HADF | 0.828 | 0.764 | 0.633 | 0.558 | 0.515 | 0.495 | 0.462 | 0.463 | 0.402
1 µM, coculture fibroblast: HCFa | 0.81103 | 0.669 | 0.5849 | 0.5401 | 0.517 | 0.523 | 0.496 | 0.471 | 0.4045
1 µM, coculture fibroblast: HCPF | 0.82326 | 0.9031 | 0.669 | 0.685 | 0.601 | 0.577 | 0.545 | 0.534 | 0.537
1 µM, coculture fibroblast: HHSteC | 0.859 | 0.757 | 0.681 | 0.641 | 0.626 | 0.626 | 0.567 | 0.544 | 0.479
1 µM, coculture fibroblast: HMF | 0.8003 | 0.865 | 0.671 | 0.66 | 0.569 | 0.553 | 0.522 | 0.514 | 0.534
1 µM, coculture fibroblast: HPFa | 0.903 | 0.8364 | 0.754 | 0.6942 | 0.675 | 0.676 | 0.617 | 0.602 | 0.525
1 µM, coculture fibroblast: HUF | 0.905 | 0.775 | 0.599 | 0.52 | 0.479 | 0.468 | 0.439 | 0.436 | 0.423
1 µM, coculture fibroblast: Hs5 | 0.983 | 0.873 | 0.698 | 0.625 | 0.526 | 0.493 | 0.468 | 0.444 | 0.48
1 µM, coculture fibroblast: Hs27A | 0.83 | 0.733 | 0.721 | 0.712 | 0.66 | 0.637 | 0.596 | 0.574 | 0.502
1 µM, coculture fibroblast: Hs343T | 0.859 | 0.936 | 0.684 | 0.601 | 0.475 | 0.451 | 0.417 | 0.417 | 0.426
1 µM, coculture fibroblast: WS1 | 0.833 | 0.678 | 0.529 | 0.467 | 0.421 | 0.406 | 0.392 | 0.389 | 0.385
